Reference: patent publication US20230159931A1, “TARGETING THE PALMOTYLATION/DEPALMOTYLATION CYCLE TO TREAT INFLAMMATORY DISEASES” (CORNELL UNIVERSITY, priority 2020, published 2023)
No constants are given. Whether binding was seen depends on the method and setting. For part of these data: Binding seen in cells or lysates may run through a third protein. Some entries that bind do so weakly or less than the wild type.

The chains behind the UniProt entries cited, without tags or fusion partners. Where a name states a change or a piece, a line headed by the entry shows the natural chain unless it says otherwise. Residues count along the entry.
UniProt Q15796: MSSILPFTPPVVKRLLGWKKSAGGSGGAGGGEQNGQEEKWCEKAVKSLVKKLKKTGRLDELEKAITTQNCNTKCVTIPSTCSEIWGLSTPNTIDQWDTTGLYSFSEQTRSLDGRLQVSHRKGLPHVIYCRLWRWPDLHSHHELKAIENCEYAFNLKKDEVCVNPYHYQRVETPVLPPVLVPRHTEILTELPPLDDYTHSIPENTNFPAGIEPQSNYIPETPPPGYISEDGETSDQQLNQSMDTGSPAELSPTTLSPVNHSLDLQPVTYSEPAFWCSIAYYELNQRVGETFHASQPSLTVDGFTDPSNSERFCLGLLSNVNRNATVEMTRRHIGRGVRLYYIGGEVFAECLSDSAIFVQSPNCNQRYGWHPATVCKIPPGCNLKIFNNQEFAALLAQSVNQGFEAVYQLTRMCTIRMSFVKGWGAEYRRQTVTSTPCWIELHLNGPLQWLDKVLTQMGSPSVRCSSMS
UniProt Q9WTL7: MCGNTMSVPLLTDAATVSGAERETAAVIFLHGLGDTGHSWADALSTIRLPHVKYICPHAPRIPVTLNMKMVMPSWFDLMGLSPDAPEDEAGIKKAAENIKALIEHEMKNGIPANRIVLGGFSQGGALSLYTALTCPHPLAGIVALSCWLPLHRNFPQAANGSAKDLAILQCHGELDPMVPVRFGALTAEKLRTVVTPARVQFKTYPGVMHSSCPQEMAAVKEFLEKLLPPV
UniProt P40763: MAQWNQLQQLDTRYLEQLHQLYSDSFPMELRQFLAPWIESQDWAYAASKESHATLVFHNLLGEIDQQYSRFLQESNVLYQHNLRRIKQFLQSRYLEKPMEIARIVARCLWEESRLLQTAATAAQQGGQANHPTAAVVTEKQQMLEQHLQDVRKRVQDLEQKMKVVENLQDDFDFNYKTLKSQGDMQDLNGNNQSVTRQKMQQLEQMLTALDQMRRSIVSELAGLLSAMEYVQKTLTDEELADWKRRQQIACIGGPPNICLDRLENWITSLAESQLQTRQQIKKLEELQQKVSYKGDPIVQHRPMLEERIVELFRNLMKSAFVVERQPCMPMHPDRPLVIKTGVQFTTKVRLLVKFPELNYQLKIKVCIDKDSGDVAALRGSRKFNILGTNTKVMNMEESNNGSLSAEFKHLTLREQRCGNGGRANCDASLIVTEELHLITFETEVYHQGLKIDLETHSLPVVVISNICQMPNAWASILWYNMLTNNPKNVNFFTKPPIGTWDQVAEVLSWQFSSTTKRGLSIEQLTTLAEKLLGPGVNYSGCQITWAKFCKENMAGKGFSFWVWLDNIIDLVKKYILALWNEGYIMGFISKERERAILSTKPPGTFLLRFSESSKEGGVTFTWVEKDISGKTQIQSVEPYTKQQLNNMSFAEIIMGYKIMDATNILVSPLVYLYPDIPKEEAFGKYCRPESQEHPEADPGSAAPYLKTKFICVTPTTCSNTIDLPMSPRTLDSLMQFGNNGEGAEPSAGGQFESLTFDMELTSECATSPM
UniProt P42227, residues 2-770: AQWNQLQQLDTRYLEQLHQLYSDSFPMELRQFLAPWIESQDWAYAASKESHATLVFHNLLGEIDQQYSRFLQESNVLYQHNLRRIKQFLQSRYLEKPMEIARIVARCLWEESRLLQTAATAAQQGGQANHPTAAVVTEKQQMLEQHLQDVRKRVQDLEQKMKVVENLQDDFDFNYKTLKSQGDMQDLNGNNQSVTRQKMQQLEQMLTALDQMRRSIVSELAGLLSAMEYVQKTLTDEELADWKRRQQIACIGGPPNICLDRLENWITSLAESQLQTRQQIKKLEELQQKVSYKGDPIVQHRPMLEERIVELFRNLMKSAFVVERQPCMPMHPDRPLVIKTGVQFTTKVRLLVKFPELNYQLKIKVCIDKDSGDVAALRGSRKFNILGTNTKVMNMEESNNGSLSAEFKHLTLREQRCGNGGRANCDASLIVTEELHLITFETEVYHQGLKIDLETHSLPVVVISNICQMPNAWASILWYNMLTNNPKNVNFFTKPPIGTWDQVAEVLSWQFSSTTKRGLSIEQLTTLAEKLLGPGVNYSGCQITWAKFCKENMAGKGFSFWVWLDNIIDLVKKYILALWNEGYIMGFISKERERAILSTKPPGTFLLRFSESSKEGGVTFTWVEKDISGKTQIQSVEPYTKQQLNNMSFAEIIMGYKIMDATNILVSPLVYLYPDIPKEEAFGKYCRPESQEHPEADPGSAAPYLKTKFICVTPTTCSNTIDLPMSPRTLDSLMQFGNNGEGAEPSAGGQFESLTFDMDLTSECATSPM

How the values were obtained:
[1] = target: HA-SMAD2 (UniProt Q15796); assay: Flag pull-down from HEK293T cells, western blot (FIG. 9C)
[2] = target: T1, DHHC7 (mouse) (UniProt Q91WU6); assay: interaction in cells; method not described in the sentence
T1 sequence: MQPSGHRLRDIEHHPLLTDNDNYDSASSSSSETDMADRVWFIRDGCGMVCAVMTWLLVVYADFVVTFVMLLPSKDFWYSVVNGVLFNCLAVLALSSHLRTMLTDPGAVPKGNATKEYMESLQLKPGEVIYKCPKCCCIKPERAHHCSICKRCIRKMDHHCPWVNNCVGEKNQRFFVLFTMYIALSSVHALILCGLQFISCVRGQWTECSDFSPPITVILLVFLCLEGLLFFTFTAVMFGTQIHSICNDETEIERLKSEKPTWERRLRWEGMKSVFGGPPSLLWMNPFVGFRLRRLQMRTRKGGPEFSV

[3] = target: Flag-tagged APT2 (mouse) (UniProt Q9WTL7); assay: STAT3-APT2 interaction experiment repeated in HEK293T cells
[4] = target: Flag-STAT3 (UniProt P40763); assay: Flag-STAT3 pull-down of HA-SMAD2, HEK293T cells (FIG. 9C)
[5] = target: Haemagglutinin (HA)-tagged STAT3 (UniProt P40763); assay: Flag-SMAD2 pull-down of HA-STAT3, HEK293T cells (FIG. 9D)
[6] = target: Haemagglutinin (HA)-tagged STAT3 (UniProt P40763); assay: Flag pull-down from HEK293T cells, western blot (FIG. 9D, 9F)
[7] = target: endogenous STAT3 of mouse splenocytes (mouse) (UniProt P42227); assay: Flag pull-down from mouse splenocytes (WT, Zdhhc7 knockout, APT2 knockout), western blot (FIG. 10E, 10F)
[8] = target: Flag-tagged APT2 (mouse) (UniProt Q9WTL7); assay: association of tagged proteins co-expressed in HEK293T cells

In the case of Flag-STAT3 (from UniProt P40763 1-770), the binding [1] is reported as “binds” and the binding [2] is reported as “binds”.

In the case of “HA-tagged phosphorylation site mutant STAT3(Y705F) (from UniProt P40763 1-770)”, the binding [3] is reported as “binds”.

In the case of HA-SMAD2 (from UniProt Q15796 1-467), the binding [4] is reported as “binds”.

In the case of Flag-SMAD2 (from UniProt Q15796 1-467), the binding [5] is reported as “binds”, the binding [6] is reported as “binds” and the binding [7] is reported as “binds”.

For “Haemagglutinin (HA)-tagged STAT3 (from UniProt P40763 1-770)”, the binding [8] was “binds” and the binding [3] was “binds”.
